Experimental data: the supplement of paper PMC5949888
Most values lie at the floor of the assay. Slopes are relative: functional sequences can read slightly below zero.

These substances were tested on Saccharomyces cerevisiae PS128 hsf1 delta, HSF1(1-493) fusion (assay: growth estimate (transactivation domain function in HSF1 fusion, heat-shock survival) (a.u. (slope of normalised read count over time)); higher = stronger growth at 37°C, i.e. more transactivation activity). Conditions: library: random library.
For GPAGANWSWKVGHRPTLPPR, the growth estimate was under -0.25. Work on SGRHQHRIWT yielded a growth estimate of under -0.25. Work on LIGIFYLDWESLLSRPGVTG yielded a growth estimate of under -0.25. KICGGKG was tested, and the growth estimate was -0.229. SRSVVLLKYLNAGLFPSLIR gave a growth estimate of under -0.25. With DVCSDSCHSKGIRAGIITTQ the growth estimate was under -0.25. WCTW was tested, and the growth estimate was under -0.253. For NIVISVSVDINPVLRLAVGP, the growth estimate was under -0.25. With LVRLPFLCGGNCFAAIVTCQ the growth estimate was under -0.25. Work on GRRAISRTLDTTRVVGFLHL yielded a growth estimate of under -0.25. Work on ESEPVLTVTDKAGAKPSPIV yielded a growth estimate of under -0.25. Substance TGLLCVIHAMIVLLVVSGPP has a growth estimate of under -0.25. For PWYVPTQAFR, the growth estimate was under -0.25. Work on TPHPSPGSGCSKSLILYIAM yielded a growth estimate of under -0.25. With TVISKCSSTAPQSP the growth estimate was under -0.25. Substance SVHRGASRRLTL has a growth estimate of under -0.25. PVQIPTRENKLSAFPSESNS was tested, and the growth estimate was under -0.25. Substance STERYCSTEVDYTYPIQVRA has a growth estimate of under -0.25. For RKGQSINVWE, the growth estimate was under -0.25. TSLGIRTTHLGSKVSCGPVK gave a growth estimate of under -0.25. PVPPLAPLQTIMLENRTNMG gave a growth estimate of -0.13. Substance RAVPTPVVRGWVM has a growth estimate of under -0.25. For QSLN, the growth estimate was under -0.25. In the case of HGASSRGFIGRRWLRFEAAL, the growth estimate is reported as under -0.25. In the case of PLRDPKAAC, the growth estimate is reported as under -0.25. In the case of GRWVTGSDRCSRPKTCHSAS, the growth estimate is reported as under -0.25. Substance ESAGI has a growth estimate of under -0.25. With NSVSMSMLETAVYRLL the growth estimate was under -0.25. IALLWVVYRALSGRRSVGCT gave a growth estimate of under -0.25. In the case of GQYLLVV, the growth estimate is reported as under -0.25. Work on AEVLFGFSAIGMTGSTDNSD yielded a growth estimate of under -0.25. For ILTLSLNSWGKVWEYGWKVG, the growth estimate was under -0.25. For RRGTPGRMSFS, the growth estimate was under -0.25. For VYLMQGGKHAMRQTRVRT, the growth estimate was under -0.25. Substance LEHICQPTAGRKVNPLYEGT has a growth estimate of under -0.25. Substance LCERRSELCLLVLGSGGAIG has a growth estimate of under -0.25. In the case of CSFSCATTRPTLVEEVNGTG, the growth estimate is reported as under -0.25. LTPDGWRYGRQKRASVICRI was tested, and the growth estimate was under -0.25. In the case of YQPVDHIIRSHGRR, the growth estimate is reported as under -0.25. In the case of VSFGPIR, the growth estimate is reported as under -0.25. RLTCCDQFA gave a growth estimate of under -0.25. CGLWIR showed a growth estimate of under -0.25. VMLFSSFMMRVCIPE showed a growth estimate of under -0.25. For TPRDKHAVIRFPVEEKCGRG, the growth estimate was under -0.25. For YRNYPDACLIVDKS, the growth estimate was under -0.25. In the case of ARGSGYAAARSRALGIPDGV, the growth estimate is reported as under -0.25. PCGLGV was tested, and the growth estimate was under -0.25. NVCIFSMDWNWCPDRLECHR gave a growth estimate of under -0.25. In the case of HASFSREPEAFSATVIC, the growth estimate is reported as under -0.25. DWVWRTYHSRLYGDR was tested, and the growth estimate was under -0.25. For CPPRL, the growth estimate was under -0.25. For PDKSDPWRAASLGAPVLGPA, the growth estimate was under -0.25. In the case of SAIP, the growth estimate is reported as under -0.25. In the case of QPAIG, the growth estimate is reported as under -0.25. WFYGVYVVPSLD was tested, and the growth estimate was under -0.25. For FTCFIESLRSTVFSESRVCR, the growth estimate was under -0.25. Substance WTRGQSSSISPLACSHA has a growth estimate of under -0.25. Substance RPAL has a growth estimate of under -0.25. ACSRLVVA gave a growth estimate of under -0.25. RQIGGNGSQLSLFCN gave a growth estimate of -0.237. For CQLILTTSTAPLKLVRILRL, the growth estimate was -0.245. KLGCREPSSIQAPYPDVLV gave a growth estimate of under -0.25. In the case of LTYGTSSVLSGALIGDDEGR, the growth estimate is reported as under -0.25. Work on HLSTSYSLSLGGACLL yielded a growth estimate of under -0.25. With ACVERGFRRMYRVEGSRKRD the growth estimate was under -0.25. VSPVAVPLRHR was tested, and the growth estimate was -0.176. With AGLSVRGH the growth estimate was under -0.25. Work on PPS yielded a growth estimate of under -0.25. PEERG gave a growth estimate of under -0.25. For PQLNSRCRWMGVRTQDPNEN, the growth estimate was under -0.25. SSVTL was tested, and the growth estimate was under -0.25. Substance IYETLSRANGPGDPPELPAL has a growth estimate of under -0.25. In the case of GPSPRIGRPFWSMCVLIY, the growth estimate is reported as under -0.25. RGFWKS gave a growth estimate of under -0.25. Work on EFSRVRRQLQTSLKSG yielded a growth estimate of under -0.25. NSVAGVRPIAIRVR was tested, and the growth estimate was under -0.25. Work on LADEYFKTVTR yielded a growth estimate of under -0.25. For WHIGVGHVI, the growth estimate was under -0.25. Work on FRGRLTETTLKQAYEVGQSH yielded a growth estimate of -0.208. NSGFLYNNSIKL was tested, and the growth estimate was under -0.25. For EGVGDRTWLVLYGQLYTHDG, the growth estimate was under -0.25. LSEQSGYECLREIR was tested, and the growth estimate was under -0.25. With RIE the growth estimate was under -0.25. With RTQSFTRKHRVQLALYGLGN the growth estimate was under -0.25. STAWDEVTV showed a growth estimate of under -0.25. Substance KRITVGQTRWLS has a growth estimate of under -0.25. For RGVPRLLRLLTGVGACTD, the growth estimate was under -0.25. Work on YRSQWGRRCRAIPSFPMATV yielded a growth estimate of under -0.25. CLFLGDRVVVRSRKPSGWLC gave a growth estimate of under -0.25. Substance LAWGLLPLL has a growth estimate of under -0.25. PRLITALSMRVGGRPFYVAC showed a growth estimate of under -0.25. TDSSP was tested, and the growth estimate was under -0.25. Work on MLARGSIY yielded a growth estimate of under -0.25. For TAEVSTWHGKECDFLEHSVR, the growth estimate was -0.0702. VVVSGNNGTVCALVVMHSIQ was tested, and the growth estimate was under -0.25. Work on GFGPLFITGA yielded a growth estimate of under -0.25. For VKMDGGPWS, the growth estimate was under -0.25. VEPKHAGMASLLGPRGPPRS was tested, and the growth estimate was under -0.25. RDQVKSREMPLSFPDSSLT was tested, and the growth estimate was under -0.25. QSRLRSIACVFSSGWGPPHR was tested, and the growth estimate was under -0.25.
